Test results taken from PMC12844663.

What was measured:
[1] = molecular target: T1, CiWOX13-His (Carya illinoinensis) (UniProt A0A8T1PP68); test: EMSA; conditions: Chemiluminescent EMSA Kit (MH104, Coolaber) per manufacturer; unlabeled cold probes as competitor; pH and temperature not stated; recombinant protein; protein details: His; label: biotin
T1 sequence (looked up, limits assumed): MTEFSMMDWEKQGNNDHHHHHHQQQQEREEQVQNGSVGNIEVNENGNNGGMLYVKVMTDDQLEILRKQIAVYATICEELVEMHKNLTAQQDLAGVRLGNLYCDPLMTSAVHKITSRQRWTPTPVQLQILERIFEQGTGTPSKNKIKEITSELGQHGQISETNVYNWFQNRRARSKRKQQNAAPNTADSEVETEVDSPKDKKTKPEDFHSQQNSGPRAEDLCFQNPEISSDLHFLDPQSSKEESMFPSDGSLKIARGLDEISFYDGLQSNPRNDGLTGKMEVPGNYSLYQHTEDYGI

[2] = molecular target: T2, CiWOX14-His (Carya illinoinensis) (UniProt A0A8T1PX11); test: EMSA; conditions: Chemiluminescent EMSA Kit (MH104, Coolaber) per manufacturer; unlabeled cold probes as competitor; pH and temperature not stated; recombinant protein; protein details: His; label: biotin
T2 sequence (looked up, limits assumed): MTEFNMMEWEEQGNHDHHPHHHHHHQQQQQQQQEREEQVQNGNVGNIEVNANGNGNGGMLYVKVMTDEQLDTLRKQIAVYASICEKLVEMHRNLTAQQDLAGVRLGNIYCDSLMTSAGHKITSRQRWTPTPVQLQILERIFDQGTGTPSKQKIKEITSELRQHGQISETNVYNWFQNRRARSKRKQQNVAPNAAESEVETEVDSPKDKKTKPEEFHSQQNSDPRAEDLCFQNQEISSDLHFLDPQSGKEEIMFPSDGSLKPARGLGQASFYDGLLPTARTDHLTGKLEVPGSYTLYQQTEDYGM

Sequence | binding result [1] | binding result [2]
GGCACAACTGTATAGGACGTGTTCCACCACTGAACA (double strand) [CiBGLU21-p1] | binds | binds
GAGAATTTGCGGGACACGTAGTATTTTTCTTTTTT / AAAAAAGAAAAATACTACGTGTCCCGCGAAATTCTC [CiBGLU21-p3] | binds | binds
TAACAGAAGCATGAACACGACAAAGTTTGTAGAAAA / TTTTCTACAAACTTTGTCGTGTTCATGCTTCTGTTT [CiBGLU21-p2] | binds | binds

For at least one entry, the source does not settle the construct or the ends of the probe. At least one verdict was read from the data and is not stated in words by the source. Tags and fusion partners may be left off the protein sequences shown.
